PubChem BioAssay AID493246 | Drosophila RNAi Screening Center – 2011

Test: 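Genome-wide search for dsRNAs that reduce cell number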 (primary screen)
System: Drosophila Kc and S2R+ cells
Knock-down reagent: long dsRNA against Drosophila genes
Measured: 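Raw, unnormalised count of remaining cells in each well; per-plate z-scores of cell number underlie the calls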
Reading the numbers: Kc cell number and S2R+ cell number: higher = more cells remaining
Hit rule: 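Counted as a hit if cell number falls by a z-score of at least 3 within its plate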
The screen tested about 21,000 reagents; below is an unselected part of those with a known target gene and a result. Of all reagents, 429 (2%) got an active call. 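Values are raw and not normalised between plates; calls rest on per-plate z-scores that were not deposited.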 Entries without a mark were called inactive. Names joined by + are all predicted targets of the reagent. Not stated in the record: the amount of reagent, the time to read-out.

Ktch (Ketchup) [DRSC15094] → Kc cell number, rep 1: 1.55e6; Kc cell number, rep 2: 1.59e6; S2R+ cell number, rep 1: 1.09e6; S2R+ cell number, rep 2: 1.22e6
CG6700 [DRSC02980] → Kc cell number, rep 1: 1.30e6; Kc cell number, rep 2: 1.38e6; S2R+ cell number, rep 1: 1.14e6; S2R+ cell number, rep 2: 1.16e6
CG31176 [DRSC15038] → Kc cell number, rep 1: 1.30e6; Kc cell number, rep 2: 1.36e6; S2R+ cell number, rep 1: 1.02e6; S2R+ cell number, rep 2: 1.06e6
CG31176 [DRSC16021] → Kc cell number, rep 1: 1.36e6; Kc cell number, rep 2: 1.34e6; S2R+ cell number, rep 1: 1.00e6; S2R+ cell number, rep 2: 1.07e6
spz3 (spatzle 3) [DRSC02391] → Kc cell number, rep 1: 1.43e6; Kc cell number, rep 2: 1.63e6; S2R+ cell number, rep 1: 1.21e6; S2R+ cell number, rep 2: 1.38e6
spz3 (spatzle 3) [DRSC03008] → Kc cell number, rep 1: 1.65e6; Kc cell number, rep 2: 1.63e6; S2R+ cell number, rep 1: 1.18e6; S2R+ cell number, rep 2: 1.38e6
CG11425 [DRSC11657] → Kc cell number, rep 1: 1.72e6; Kc cell number, rep 2: 2.05e6; S2R+ cell number, rep 1: 1.28e6; S2R+ cell number, rep 2: 1.39e6
GstD3 (Glutathione S transferase D3) [DRSC15571] → Kc cell number, rep 1: 1.40e6; Kc cell number, rep 2: 1.37e6; S2R+ cell number, rep 1: 1.14e6; S2R+ cell number, rep 2: 1.26e6
CG32425 [DRSC11739] → Kc cell number, rep 1: 8.28e5 (active); Kc cell number, rep 2: 8.22e5; S2R+ cell number, rep 1: 6.79e5; S2R+ cell number, rep 2: 8.55e5
CG32425 [DRSC11764] → Kc cell number, rep 1: 1.52e6; Kc cell number, rep 2: 1.55e6; S2R+ cell number, rep 1: 1.30e6; S2R+ cell number, rep 2: 1.35e6
tou (toutatis) [DRSC06006] → Kc cell number, rep 1: 1.40e6; Kc cell number, rep 2: 1.44e6; S2R+ cell number, rep 1: 1.12e6; S2R+ cell number, rep 2: 1.20e6
CG34457 [DRSC06924] → Kc cell number, rep 1: 1.54e6; Kc cell number, rep 2: 1.56e6; S2R+ cell number, rep 1: 1.23e6; S2R+ cell number, rep 2: 1.38e6
CG2915 [DRSC06842] → Kc cell number, rep 1: 1.31e6; Kc cell number, rep 2: 1.40e6; S2R+ cell number, rep 1: 1.04e6; S2R+ cell number, rep 2: 1.10e6
BNIP3 [DRSC11761] → Kc cell number, rep 1: 1.40e6; Kc cell number, rep 2: 1.41e6; S2R+ cell number, rep 1: 1.31e6; S2R+ cell number, rep 2: 1.36e6
Wdr62 (WD repeat domain 62) [DRSC00081] → Kc cell number, rep 1: 1.62e6; Kc cell number, rep 2: 1.75e6; S2R+ cell number, rep 1: 1.10e6; S2R+ cell number, rep 2: 1.32e6
Wdr62 (WD repeat domain 62) [DRSC00082] → Kc cell number, rep 1: 1.73e6; Kc cell number, rep 2: 1.91e6; S2R+ cell number, rep 1: 1.16e6; S2R+ cell number, rep 2: 1.31e6
Wdr62 (WD repeat domain 62) [DRSC00701] → Kc cell number, rep 1: 1.33e6; Kc cell number, rep 2: 1.34e6; S2R+ cell number, rep 1: 7.79e5; S2R+ cell number, rep 2: 9.61e5
CG2065 [DRSC06813] → Kc cell number, rep 1: 1.74e6; Kc cell number, rep 2: 1.98e6; S2R+ cell number, rep 1: 1.32e6; S2R+ cell number, rep 2: 1.74e6
CG8042 [DRSC09676] → Kc cell number, rep 1: 1.42e6; Kc cell number, rep 2: 1.45e6; S2R+ cell number, rep 1: 1.28e6; S2R+ cell number, rep 2: 1.26e6
CG12546 + CG14452 [DRSC11709] → Kc cell number, rep 1: 1.59e6; Kc cell number, rep 2: 1.59e6; S2R+ cell number, rep 1: 1.15e6; S2R+ cell number, rep 2: 1.31e6
scpr-B (SCP-containing protein B) [DRSC15200] → Kc cell number, rep 1: 1.49e6; Kc cell number, rep 2: 1.52e6; S2R+ cell number, rep 1: 1.20e6; S2R+ cell number, rep 2: 1.26e6

2 entries from above, sorted by “Kc cell number, rep 1”, lowest first:
GstD3 (Glutathione S transferase D3) [DRSC15571] → Kc cell number, rep 1: 1.40e6; Kc cell number, rep 2: 1.37e6; S2R+ cell number, rep 1: 1.14e6; S2R+ cell number, rep 2: 1.26e6
CG11425 [DRSC11657] → Kc cell number, rep 1: 1.72e6; Kc cell number, rep 2: 2.05e6; S2R+ cell number, rep 1: 1.28e6; S2R+ cell number, rep 2: 1.39e6
